Data from US20210301293.

Sequences of proteins named here, by UniProt entry; tags and fusion partners are left off. Residues count along the entry.
UniProt P09382, 2-135: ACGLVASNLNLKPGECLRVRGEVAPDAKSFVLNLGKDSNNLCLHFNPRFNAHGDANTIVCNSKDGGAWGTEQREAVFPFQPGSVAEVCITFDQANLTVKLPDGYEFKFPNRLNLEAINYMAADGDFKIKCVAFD

Legend:
[1] = molecular target: human galectin-1 (hGal1), alkylated (Homo sapiens) (UniProt P09382); test: binding assay; settings: thermal shift assay; Tm change not significant; also no hemagglutination effect (FIG. 15); purified recombinant protein; single-stranded DNA
[2] = molecular target: human galectin-1 (hGal1), alkylated (Homo sapiens) (UniProt P09382); test: inhibition of the protein; settings: no effect on hemagglutination by alkylated Gal1; purified recombinant protein; single-stranded DNA; dose not given here
[3] = molecular target: human galectin-1 (hGal1), native (Homo sapiens) (UniProt P09382); test: inhibition of the protein; settings: purified recombinant protein, single-stranded DNA
[4] = hemagglutination inhibition, stated similar to SEQ ID NO 4 and 9, dose not given here

CTGACACAGCAGGTTGGTGCCAACTAACACCATAAGAATACCCCGCTCCAAATAAGCCCACACGTAAACCCGAGTCGAGCAATCTCGAAAT [SEQ ID NO. 4 (AptaGal1)]
binding result [1]: no binding

AGCTGACACAGCAGGTTGGTGCCCAAAAGAGCCAATCCACGACGACACCCCAAAAACCATATCACGAATACCCGAGTCGAGCAATCTCGAAAT [SEQ ID NO. 9]
functional effect of the aptamer [2]: not active
functional effect of the aptamer ([3]; hemagglutination inhibited from 10 uM aptamer, 5 uM hGal1): active

AGCTGACACAGCAGGTTGGTGCCAACAAGAAAAGAAACCGTTACAGAAGACACTACAGAATAAGTGAAAAGCCGAGTCGAGCAATCTCGAAAT [SEQ ID NO. 10]
functional effect of the aptamer [3, 4]: active

AGCTGACACAGCAGGTTGGTGCGCCCAATACAGGCGCAGTATCTGTCCGTGGGCCGGGTAAAAGTTACGGACCGAGTCGAGCAATCTCGAAAT [SEQ ID NO. 12]
functional effect of the aptamer [3, 4]: active

For some assays here: Negatives hold for the conditions tested.
